The nature of this data set: general procedure: Fmoc solid-phase peptide synthesis. Particulars: whole synthesis.

Strings that start with PEPTIDE1 are HELM notation: dots part the residues, brackets hold end groups and non-standard residues.

Turning to “PEPTIDE1{[ac].K.S.L.S.L.S.L.S.L.S.L.S.L.K.G.P.R.K.L.Y.D.Y.[am]}$$$$V2.0”, the “final HPLC purity” value is given as above 95%.

The values are drawn from US20190380957A1 (New Jersey Institute of Technology, priority 2018, published 2019).
